Values from PubChem BioAssay AID652272 (Drosophila RNAi Screening Center, 2013).
In all, the deposit lists about 21,000 reagents; below is a random part of those with a known target gene and a result. Of all reagents, 503 (2.4%) are marked active. 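Raw plate light values, not normalised; calls rest on replicate z-scores that were not deposited; hits include reporter decreases as well as increases.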 Reagents against one gene are numbered here. A plus sign joins genes that one reagent is predicted to hit. Reagent sequences are not shown. The record does not give: the amount of reagent, the time to read-out.

Aim: 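Genes whose knock-down decreases or increases Hedgehog reporter output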 (primary screen)
Cell system: Drosophila clone 8 (Cl8) cells
Knock-down reagent: long dsRNA against Drosophila genes
Detection: 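Plate reader light from a firefly reporter under a ptc promoter fragment that responds to Hedgehog, with Renilla light as transfection reference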
Reading the numbers: firefly Hh reporter signal: higher = more ptc reporter light; Renilla reference signal: higher = more Renilla control light
Call rule: 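Called a hit if the two-replicate mean z-score lies below -2 or above +3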
Calls: active = hit: reporter lowered or raised; inactive = not a hit

target gene	dsRNA no.	firefly Hh reporter signal, replicate 1	firefly Hh reporter signal, replicate 2	firefly Hh reporter signal, replicate 3	Renilla reference signal, replicate 1	Renilla reference signal, replicate 2	call
CG43394	1	4.37e5	2.08e5		22072	7916	inactive
cn (cinnabar)	1	73536	42519		1645	4528	inactive
RIC-3 (RIC3 acetylcholine receptor chaperone)	1	1.35e5	1.09e5		5479	4336	inactive
RIC-3 (RIC3 acetylcholine receptor chaperone)	2	1.29e5	61130		3130	4517	inactive
Sld5	1	4.22e5	71690		26029	2368	inactive
CG15756	1	50898	2.26e5		1296	8244	inactive
CG9040	1	92269			2605	2838	inactive
Pex11c (Peroxin 11c)	1	6.56e5	97283		30930	3187	inactive
CG15296	1	56428	1.51e5		1433	6092	inactive
Syp (Syncrip)	1	44656	2.01e5		9513	4816	inactive
Syp (Syncrip)	2	1.49e5	71477		5815	3353	inactive
rswl (roswell)	1	1.06e5	99235		4349	3466	inactive
Osi12 (Osiris 12)	1	84963	96375		3248	2824	inactive
dj-1beta	1	84688	1.06e5		2681	5508	inactive
Dolk (Dolichol kinase)	1	1.11e5	54022		2983	3115	inactive
mthl12 (methuselah-like 12)	1	37460	1.60e5		7107	3640	inactive
CG10137	1	37921	29616		2214	1373	inactive
CG10137	2	66325	38780		1707	3218	inactive
fzo (fuzzy onions)	1	5.23e5	77299		26400	2080	inactive
CG11892	1	61600	1.55e5		1008	3522	inactive
TotF (Turandot F)	1	73715	54544		1125	5154	inactive
Grx5 (Glutaredoxin 5)	1	99322	2.15e5		3949	9737	inactive
CG33155 + mRpL53	1	1.17e5	2.67e5		8056	10897	inactive
Atg10 + CG12822	1	71461	48528		1852	4392	inactive
l(2)37Bb (lethal (2) 37Bb)	1	1.08e5	6.26e5	64393	2370	36396	inactive
EMC3 (ER membrane protein complex subunit 3)	1	1.28e5	45505		3254	4935	inactive
mRpL38 (mitochondrial ribosomal protein L38)	1	66807	2.19e5		2233	9540	inactive
CG4461	1	20464	46150	49304	3618	4038	inactive
CG11342	1	45829	49607		4438	3126	inactive
sls (sallimus)	1	81691	71891		4080	3388	inactive
sls (sallimus)	2	94153	35120		4016	3552	inactive
sls (sallimus)	3	89413	43476		1524	3015	active
SerRS (Seryl-tRNA synthetase)	1	94311	80160		5250	3868	inactive
milt (milton)	1	4.92e5	1.12e5		24984	4789	inactive
milt (milton)	2	7.01e5	1.34e5		34000	6115	inactive
milt (milton)	3	1.13e5	1.28e5		4850	5968	inactive
CG43075	1	7.52e5	2.67e5		43111	5147	inactive
CG8870	1	91152	81744		2986	2272	inactive
CG15394	1	85520	54880		1992	1250	inactive
CG6362	1	72518	65699		1320	4850	inactive
CG13678	1	6.34e5	1.14e5		4212	4212	inactive
nompB (no mechanoreceptor potential B)	1	75209	60131		1724	5003	inactive
nompB (no mechanoreceptor potential B)	2	1.18e5	1.06e5		2978	9307	inactive
Kua	1	82561	58512		2212	5273	inactive
rb (ruby)	1	82992	1.99e5		3252	7452	inactive
Klc (Kinesin light chain)	1	1.03e5	58777		4644	2621	inactive
CG10444	1	75000	49072		3962	2593	inactive
CG9897 + asRNA:CR42742	1	71676	50787		1221	5008	inactive
srw (shrew)	1	74813	32647		2016	1332	inactive
apn (apnoia)	1	71285	78564		2752	1970	inactive
FBXO11 (F-box protein 11)	1	1.04e5	74881		4496	2373	inactive
Sans (Scaffold protein containing ankyrin repeats and SAM domain)	1	81395	70457		3576	949	inactive
beta-Man (beta-Mannosidase)	1	1.24e5	98956		4759	4087	inactive
beta-Man (beta-Mannosidase)	2	1.33e5	1.71e5		4608	4868	inactive
wmd (wing morphogenesis defect)	1	85208	48493		2640	1864	inactive
Lrp4 (LDL receptor related protein 4)	1	94886	56016		2513	1136	inactive
CG12926	1	1.36e5	6.73e5	73058	2980	36773	inactive

Part of the list above in another layout.
mthl12 (methuselah-like 12): firefly Hh reporter signal, replicate 1 = 37460; firefly Hh reporter signal, replicate 2 = 1.60e5; Renilla reference signal, replicate 1 = 7107; Renilla reference signal, replicate 2 = 3640; call = inactive
CG10137 #1: firefly Hh reporter signal, replicate 1 = 37921; firefly Hh reporter signal, replicate 2 = 29616; Renilla reference signal, replicate 1 = 2214; Renilla reference signal, replicate 2 = 1373; call = inactive
CG10137 #2: firefly Hh reporter signal, replicate 1 = 66325; firefly Hh reporter signal, replicate 2 = 38780; Renilla reference signal, replicate 1 = 1707; Renilla reference signal, replicate 2 = 3218; call = inactive
fzo (fuzzy onions): firefly Hh reporter signal, replicate 1 = 5.23e5; firefly Hh reporter signal, replicate 2 = 77299; Renilla reference signal, replicate 1 = 26400; Renilla reference signal, replicate 2 = 2080; call = inactive
CG11892: firefly Hh reporter signal, replicate 1 = 61600; firefly Hh reporter signal, replicate 2 = 1.55e5; Renilla reference signal, replicate 1 = 1008; Renilla reference signal, replicate 2 = 3522; call = inactive
TotF (Turandot F): firefly Hh reporter signal, replicate 1 = 73715; firefly Hh reporter signal, replicate 2 = 54544; Renilla reference signal, replicate 1 = 1125; Renilla reference signal, replicate 2 = 5154; call = inactive
Grx5 (Glutaredoxin 5): firefly Hh reporter signal, replicate 1 = 99322; firefly Hh reporter signal, replicate 2 = 2.15e5; Renilla reference signal, replicate 1 = 3949; Renilla reference signal, replicate 2 = 9737; call = inactive
CG33155 + mRpL53: firefly Hh reporter signal, replicate 1 = 1.17e5; firefly Hh reporter signal, replicate 2 = 2.67e5; Renilla reference signal, replicate 1 = 8056; Renilla reference signal, replicate 2 = 10897; call = inactive
